Results published in publication PMC5323046.
These are yes or no findings as the source states them, for the method shown. For some of these results: Binding seen in cells or lysates may run through a third protein. Some results given as binding are weak or reduced against the parent protein; the word gives no strength. For some of these results: Sequences can lack the tags named with a protein.

Protein sequences, listed by entry. Tags and fused reporters are not part of them.
UniProt P51159: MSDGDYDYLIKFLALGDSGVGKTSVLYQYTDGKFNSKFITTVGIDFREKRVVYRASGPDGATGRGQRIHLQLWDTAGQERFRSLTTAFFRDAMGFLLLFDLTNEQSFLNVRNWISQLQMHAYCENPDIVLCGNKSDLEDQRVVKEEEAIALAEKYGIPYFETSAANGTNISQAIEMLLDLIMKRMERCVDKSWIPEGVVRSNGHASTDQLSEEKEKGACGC
UniProt Q8TDY2: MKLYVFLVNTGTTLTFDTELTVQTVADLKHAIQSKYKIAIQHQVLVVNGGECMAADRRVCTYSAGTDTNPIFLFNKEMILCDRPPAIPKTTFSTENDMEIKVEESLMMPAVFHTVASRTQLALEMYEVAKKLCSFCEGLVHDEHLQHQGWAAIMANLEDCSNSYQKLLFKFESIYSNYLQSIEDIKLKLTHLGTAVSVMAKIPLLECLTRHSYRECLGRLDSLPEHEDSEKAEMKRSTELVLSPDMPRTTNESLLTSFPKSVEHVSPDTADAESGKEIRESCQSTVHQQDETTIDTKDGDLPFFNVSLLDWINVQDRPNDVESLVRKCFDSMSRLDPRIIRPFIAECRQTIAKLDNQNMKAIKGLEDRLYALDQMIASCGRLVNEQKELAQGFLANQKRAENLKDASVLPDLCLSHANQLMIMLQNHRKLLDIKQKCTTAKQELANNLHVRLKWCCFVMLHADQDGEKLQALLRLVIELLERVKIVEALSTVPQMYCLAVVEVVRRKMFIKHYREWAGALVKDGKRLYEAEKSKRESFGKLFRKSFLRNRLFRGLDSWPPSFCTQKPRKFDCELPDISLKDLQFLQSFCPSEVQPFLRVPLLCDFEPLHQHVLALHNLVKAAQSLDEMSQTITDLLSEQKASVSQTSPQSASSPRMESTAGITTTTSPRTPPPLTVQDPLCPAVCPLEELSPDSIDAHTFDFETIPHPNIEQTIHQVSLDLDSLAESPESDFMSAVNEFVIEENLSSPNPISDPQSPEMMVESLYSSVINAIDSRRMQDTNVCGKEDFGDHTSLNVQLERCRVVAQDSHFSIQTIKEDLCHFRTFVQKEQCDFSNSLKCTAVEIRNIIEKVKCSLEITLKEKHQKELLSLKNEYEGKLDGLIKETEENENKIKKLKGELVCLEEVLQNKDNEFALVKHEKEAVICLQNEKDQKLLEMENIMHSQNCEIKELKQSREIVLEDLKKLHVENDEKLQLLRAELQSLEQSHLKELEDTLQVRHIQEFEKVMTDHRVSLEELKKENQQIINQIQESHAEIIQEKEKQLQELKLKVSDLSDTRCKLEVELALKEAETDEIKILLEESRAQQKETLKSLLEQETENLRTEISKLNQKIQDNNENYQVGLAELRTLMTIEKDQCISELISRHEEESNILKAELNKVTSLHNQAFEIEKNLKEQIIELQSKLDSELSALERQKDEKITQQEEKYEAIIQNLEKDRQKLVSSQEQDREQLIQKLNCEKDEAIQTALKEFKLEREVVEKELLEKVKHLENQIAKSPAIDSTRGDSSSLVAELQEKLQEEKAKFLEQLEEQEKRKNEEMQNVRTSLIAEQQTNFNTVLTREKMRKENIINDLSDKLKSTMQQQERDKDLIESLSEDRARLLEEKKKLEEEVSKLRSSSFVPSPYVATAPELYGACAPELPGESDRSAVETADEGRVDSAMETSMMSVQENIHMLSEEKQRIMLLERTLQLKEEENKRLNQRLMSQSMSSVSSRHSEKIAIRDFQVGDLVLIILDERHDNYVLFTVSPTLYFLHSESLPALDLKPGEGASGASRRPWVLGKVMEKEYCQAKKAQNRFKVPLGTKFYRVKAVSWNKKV
UniProt Q96BY7: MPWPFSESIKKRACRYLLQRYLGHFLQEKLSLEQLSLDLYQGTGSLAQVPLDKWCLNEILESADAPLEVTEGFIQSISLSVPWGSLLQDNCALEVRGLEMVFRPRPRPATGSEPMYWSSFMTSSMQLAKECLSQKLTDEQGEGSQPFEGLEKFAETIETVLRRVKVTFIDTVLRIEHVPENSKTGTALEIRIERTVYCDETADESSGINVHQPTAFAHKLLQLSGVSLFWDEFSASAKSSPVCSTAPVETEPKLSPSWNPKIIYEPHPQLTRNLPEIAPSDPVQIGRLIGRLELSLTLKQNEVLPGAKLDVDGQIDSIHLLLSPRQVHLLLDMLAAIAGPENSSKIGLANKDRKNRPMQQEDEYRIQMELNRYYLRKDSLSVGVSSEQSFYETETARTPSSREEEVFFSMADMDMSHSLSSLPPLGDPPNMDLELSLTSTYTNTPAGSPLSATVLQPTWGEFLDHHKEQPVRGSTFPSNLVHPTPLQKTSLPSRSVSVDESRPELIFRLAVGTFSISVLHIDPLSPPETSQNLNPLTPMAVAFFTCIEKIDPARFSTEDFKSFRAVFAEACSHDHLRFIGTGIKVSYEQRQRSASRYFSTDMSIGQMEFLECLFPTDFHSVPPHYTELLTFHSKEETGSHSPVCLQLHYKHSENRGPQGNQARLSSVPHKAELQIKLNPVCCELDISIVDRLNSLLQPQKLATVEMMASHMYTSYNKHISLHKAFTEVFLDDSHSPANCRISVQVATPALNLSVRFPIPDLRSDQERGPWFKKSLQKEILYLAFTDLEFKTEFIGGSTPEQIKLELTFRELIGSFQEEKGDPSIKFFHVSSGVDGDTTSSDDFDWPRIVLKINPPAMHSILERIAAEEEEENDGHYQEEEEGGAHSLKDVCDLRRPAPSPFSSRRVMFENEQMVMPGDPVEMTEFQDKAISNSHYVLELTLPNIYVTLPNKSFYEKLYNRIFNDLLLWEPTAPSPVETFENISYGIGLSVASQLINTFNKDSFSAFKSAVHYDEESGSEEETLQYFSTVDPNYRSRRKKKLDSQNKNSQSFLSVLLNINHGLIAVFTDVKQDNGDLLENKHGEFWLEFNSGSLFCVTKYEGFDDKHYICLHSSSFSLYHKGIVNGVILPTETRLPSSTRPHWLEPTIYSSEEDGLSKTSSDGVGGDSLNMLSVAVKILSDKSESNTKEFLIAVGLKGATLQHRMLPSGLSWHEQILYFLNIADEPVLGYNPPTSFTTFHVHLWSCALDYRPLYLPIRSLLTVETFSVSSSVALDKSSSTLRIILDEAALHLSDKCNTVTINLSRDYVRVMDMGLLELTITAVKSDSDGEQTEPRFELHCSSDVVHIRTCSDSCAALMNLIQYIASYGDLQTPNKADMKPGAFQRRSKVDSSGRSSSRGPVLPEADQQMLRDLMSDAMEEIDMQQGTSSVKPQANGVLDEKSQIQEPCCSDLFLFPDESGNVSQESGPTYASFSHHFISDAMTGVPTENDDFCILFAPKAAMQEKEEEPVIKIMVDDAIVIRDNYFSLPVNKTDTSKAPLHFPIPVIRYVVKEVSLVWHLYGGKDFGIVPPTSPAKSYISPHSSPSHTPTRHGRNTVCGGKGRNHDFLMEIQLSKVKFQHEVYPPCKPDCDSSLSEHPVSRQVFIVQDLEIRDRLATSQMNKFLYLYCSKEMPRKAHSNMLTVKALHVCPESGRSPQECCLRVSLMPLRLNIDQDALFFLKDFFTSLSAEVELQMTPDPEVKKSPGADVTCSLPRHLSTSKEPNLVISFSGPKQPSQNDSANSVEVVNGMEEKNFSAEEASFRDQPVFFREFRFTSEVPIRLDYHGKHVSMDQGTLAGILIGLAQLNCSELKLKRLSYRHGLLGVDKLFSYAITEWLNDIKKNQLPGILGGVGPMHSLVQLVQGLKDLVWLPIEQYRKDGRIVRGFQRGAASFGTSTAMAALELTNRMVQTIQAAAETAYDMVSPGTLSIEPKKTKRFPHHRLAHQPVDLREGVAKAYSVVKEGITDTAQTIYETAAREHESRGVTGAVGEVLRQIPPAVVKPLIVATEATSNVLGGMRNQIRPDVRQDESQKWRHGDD

Experiments:
[1] = target: T1, HA-tagged full-length SMCR8 (human) (UniProt Q8TEV9); test: native gel or EMSA; HA-IP from 293T-REx cells inducibly expressing HA-tagged SMCR8, C9ORF72, ATG13 or ULK1, elution with HA peptide in PBS, Native PAGE (3-12% Bis-Tris), then immunoblot or in-gel digestion and mass spectrometry
T1 sequence: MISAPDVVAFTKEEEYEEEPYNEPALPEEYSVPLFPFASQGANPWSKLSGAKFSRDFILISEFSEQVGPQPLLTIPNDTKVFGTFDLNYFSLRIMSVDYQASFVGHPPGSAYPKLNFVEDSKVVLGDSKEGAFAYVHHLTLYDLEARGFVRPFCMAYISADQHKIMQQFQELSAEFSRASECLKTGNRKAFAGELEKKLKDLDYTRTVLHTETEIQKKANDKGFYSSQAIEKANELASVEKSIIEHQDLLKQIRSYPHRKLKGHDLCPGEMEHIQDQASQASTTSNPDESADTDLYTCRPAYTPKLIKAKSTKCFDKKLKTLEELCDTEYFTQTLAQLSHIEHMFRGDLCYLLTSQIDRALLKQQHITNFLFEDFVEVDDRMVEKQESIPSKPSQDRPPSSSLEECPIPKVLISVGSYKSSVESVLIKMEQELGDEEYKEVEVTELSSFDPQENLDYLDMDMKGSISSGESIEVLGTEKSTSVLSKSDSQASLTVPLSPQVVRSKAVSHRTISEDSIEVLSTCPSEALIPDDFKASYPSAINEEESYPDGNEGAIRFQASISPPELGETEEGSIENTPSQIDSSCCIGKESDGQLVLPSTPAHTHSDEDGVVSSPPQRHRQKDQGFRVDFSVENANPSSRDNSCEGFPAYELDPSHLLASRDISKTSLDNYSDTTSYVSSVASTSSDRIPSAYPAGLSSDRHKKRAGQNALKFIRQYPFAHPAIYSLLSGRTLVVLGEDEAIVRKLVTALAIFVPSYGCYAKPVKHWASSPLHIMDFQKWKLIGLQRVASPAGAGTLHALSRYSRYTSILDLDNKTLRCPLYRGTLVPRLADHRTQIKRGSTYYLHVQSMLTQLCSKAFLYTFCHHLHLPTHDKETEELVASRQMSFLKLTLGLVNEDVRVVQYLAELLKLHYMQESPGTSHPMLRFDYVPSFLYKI

[2] = target: T1, HA-tagged full-length SMCR8 (human); test: co-IP; 293T cells transiently transfected with HA-tagged full length SMCR8 or fragments; HA-IP, SDS-PAGE, immunoblot of endogenous partners; blots quantified with ImageJ
[3] = target: T2, HA-tagged SMCR8 fragment 1–700 (human) (UniProt Q8TEV9); test: as above
T2 sequence: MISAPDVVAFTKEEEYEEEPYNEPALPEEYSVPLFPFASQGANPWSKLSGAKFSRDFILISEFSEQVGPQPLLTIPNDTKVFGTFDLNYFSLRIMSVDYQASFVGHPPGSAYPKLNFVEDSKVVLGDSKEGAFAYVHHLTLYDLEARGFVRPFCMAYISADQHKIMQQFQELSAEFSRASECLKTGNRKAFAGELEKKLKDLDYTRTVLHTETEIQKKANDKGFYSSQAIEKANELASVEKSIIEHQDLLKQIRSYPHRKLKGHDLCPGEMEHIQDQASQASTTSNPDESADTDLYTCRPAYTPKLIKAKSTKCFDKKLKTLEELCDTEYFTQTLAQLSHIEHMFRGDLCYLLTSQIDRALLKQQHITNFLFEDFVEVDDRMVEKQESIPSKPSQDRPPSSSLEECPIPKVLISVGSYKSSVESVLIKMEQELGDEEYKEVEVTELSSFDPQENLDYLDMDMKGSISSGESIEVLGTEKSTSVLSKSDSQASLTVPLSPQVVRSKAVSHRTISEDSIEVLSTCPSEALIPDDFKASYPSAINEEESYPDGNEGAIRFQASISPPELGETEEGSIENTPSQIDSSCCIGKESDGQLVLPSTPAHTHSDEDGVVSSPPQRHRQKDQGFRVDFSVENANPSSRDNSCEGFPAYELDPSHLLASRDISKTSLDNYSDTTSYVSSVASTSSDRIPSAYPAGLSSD

[4] = target: T3, HA-tagged SMCR8 fragment 701–937 (human) (UniProt Q8TEV9); test: as above
T3 sequence: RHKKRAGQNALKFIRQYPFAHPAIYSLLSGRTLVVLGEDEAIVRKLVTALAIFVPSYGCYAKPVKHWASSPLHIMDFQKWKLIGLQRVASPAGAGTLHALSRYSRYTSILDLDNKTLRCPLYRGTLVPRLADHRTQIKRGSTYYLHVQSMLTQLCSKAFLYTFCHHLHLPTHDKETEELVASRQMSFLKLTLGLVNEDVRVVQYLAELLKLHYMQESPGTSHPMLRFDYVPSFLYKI

[5] = target: T4, HA-tagged C9ORF72 (human) (UniProt Q96LT7); test: co-IP; as a2, HA-C9ORF72 IP from fed (not starved) 293T-REx cells
T4 sequence: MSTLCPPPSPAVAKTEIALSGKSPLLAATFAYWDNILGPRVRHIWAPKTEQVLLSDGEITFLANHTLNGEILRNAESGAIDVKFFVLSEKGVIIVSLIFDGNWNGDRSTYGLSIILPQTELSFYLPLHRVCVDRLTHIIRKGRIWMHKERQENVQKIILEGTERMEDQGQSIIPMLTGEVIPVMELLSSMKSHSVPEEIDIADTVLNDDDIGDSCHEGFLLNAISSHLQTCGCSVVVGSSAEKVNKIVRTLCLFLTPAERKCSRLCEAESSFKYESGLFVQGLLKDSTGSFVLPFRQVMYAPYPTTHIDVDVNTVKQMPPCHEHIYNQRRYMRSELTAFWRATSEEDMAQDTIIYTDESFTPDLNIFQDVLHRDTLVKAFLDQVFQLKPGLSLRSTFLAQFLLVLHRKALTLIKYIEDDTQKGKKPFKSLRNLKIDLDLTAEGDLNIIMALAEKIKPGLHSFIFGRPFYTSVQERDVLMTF

[6] = target: T5, endogenous SMCR8 (human (endogenous in 293T)) (UniProt Q8TEV9); test: SEC; whole cell lysates of 293T cells (freeze-thaw cycles, 50 mM TRIS pH 7.5, 150 mM NaCl) on Superose 6 10/300 GL; fractions by SDS-PAGE and immunoblot
T5 sequence: T1 sequence

[7] = target: T5, endogenous SMCR8 (human (endogenous in 293T)); test: co-IP; endogenous IP with anti-SMCR8 (anti-IgG as control) from 293T lysate (MCLB), cells with sicon or SMCR8 siRNA for 72 hr; DMSO or 250 nM Torin1 for 2 hr; immunoblot
[8] = target: T1, HA-tagged full-length SMCR8 (human); test: co-IP; HA-IP (anti-HA-agarose, overnight, 4°C, MCLB buffer) from 293T-REx cells inducibly expressing HA-tagged bait, empty cells (MOCK) as control; SDS-PAGE and immunoblot of endogenous partners; cells untreated, with DMSO or 250 nM Torin1 for 2 hr, or starved with EBSS for 2 hr
[9] = target: T4, HA-tagged C9ORF72 (human); test: as above
[10] = target: HA-tagged RAB27A (Ras-related protein Rab-27A) (human) (UniProt P51159); test: as above

In the case of “endogenous FIP200/RB1CC1 (focal adhesion kinase interacting protein of 200 kDa/RB1 inducible coiled-coil1) (from UniProt Q8TDY2 1-1594)”, the binding [1] is reported as “binds”, the binding [2] is reported as “binds” and the binding [3] is reported as “binds”. For the same molecule, the binding [4] was “no binding”, the binding [5] was “binds weakly” and the binding [6] was “binds”. For the same molecule, the binding [7] was “binds”, the binding [8] was “binds” and the binding [9] was “binds”.

In the case of ATG2B (from UniProt Q96BY7 1-2078), the binding [10] is reported as “binds”.

B1: VMP1 (protein, UniProt Q96GC9 1-406)
chain: MAENGKNCDQRRVAMNKEHHNGNFTDPSSVNEKKRREREERQNIVLWRQPLITLQYFSLEILVILKEWTSKLWHRQSIVVSFLLLLAVLIATYYVEGVHQQYVQRIEKQFLLYAYWIGLGILSSVGLGTGLHTFLLYLGPHIASVTLAAYECNSVNFPEPPYPDQIICPDEEGTEGTISLWSIISKVRIEACMWGIGTAIGELPPYFMARAARLSGAEPDDEEYQEFEEMLEHAESAQDFASRAKLAVQKLVQKVGFFGILACASIPNPLFDLAGITCGHFLVPFWTFFGATLIGKAIIKMHIQKIFVIITFSKHIVEQMVAFIGAVPGIGPSLQKPFQEYLEAQRQKLHHKSEMGTPQGENWLSWMFEKLVVVMVCYFILSIINSMAQSYAKRIQQRLNSEEKTK
B1 was tested, and the binding [10] was “binds”.

B2: endogenous WDR41 (protein, UniProt Q9HAD4 1-459)
chain: MLRWLIGGGREPQGLAEKSPLQTIGEEQTQNPYTELLVLKAHHDIVRFLVQLDDYRFASAGDDGIVVVWNAQTGEKLLELNGHTQKITAIITFPSLESCEEKNQLILTASADRTVIVWDGDTTRQVQRISCFQSTVKCLTVLQRLDVWLSGGNDLCVWNRKLDLLCKTSHLSDTGISALVEIPKNCVVAAVGKELIIFRLVAPTEGSLEWDILEVKRLLDHQDNILSLINVNDLSFVTGSHVGELIIWDALDWTMQAYERNFWDPSPQLDTQQEIKLCQKSNDISIHHFTCDEENVFAAVGRGLYVYSLQMKRVIACQKTAHDSNVLHVARLPNRQLISCSEDGSVRIWELREKQQLAAEPVPTGFFNMWGFGRVSKQASQPVKKQQENATSCSLELIGDLIGHSSSVEMFLYFEDHGLVTCSADHLIILWKNGERESGLRSLRLFQKLEENGDLYLAV
With B2 the binding [1] was “binds” and the binding [6] was “binds”.
